Results on three substances are retold here after US20090275727A1 (MIMETICA PTY LIMITED, priority 1998, published 2009).

This data set can be described thus: general procedure: Fmoc solid-phase peptide synthesis; Rink amide MBHA; HBTU/DIEA; HATU/DIEA for the pentapeptide helix mimetic building block. As to conditions: whole synthesis.

Where the note is “scale 0.25 mmol”, FLPLIGRGLSGLL-NH2 registered a crude mass of 240 mg and an isolated mass of 4.4 mg.

Consider GWTLNSAGYLLGPHAV-NH2, for which, where the note is “scale 0.18 mmol”, the crude mass came out at 34 mg and the isolated mass worked out at 2.3 mg.

Where the note is “scale 0.25 mmol”, FLPLIGRVLSGIL-NH2 came in with a crude mass of 65 mg and an isolated mass of 6.4 mg.
